Data on 14 targets can be found in the supplement of paper PMC12067093, “Discovery and optimisation of a covalent ligand for TRIM25 and its application to targeted protein ubiquitination” (Chemical Science, 2025).

The chains behind the UniProt entries cited, without tags or fusion partners. Where a name states a change or a piece, a line headed by the entry shows the natural chain unless it says otherwise.
UniProt Q96GX9: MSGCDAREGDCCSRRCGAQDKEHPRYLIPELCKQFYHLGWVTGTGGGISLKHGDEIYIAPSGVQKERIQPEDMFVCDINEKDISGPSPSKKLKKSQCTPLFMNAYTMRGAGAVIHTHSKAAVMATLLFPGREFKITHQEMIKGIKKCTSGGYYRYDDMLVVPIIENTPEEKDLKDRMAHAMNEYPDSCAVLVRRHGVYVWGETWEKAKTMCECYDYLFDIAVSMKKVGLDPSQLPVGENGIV
UniProt O94973, whole entry, looked up: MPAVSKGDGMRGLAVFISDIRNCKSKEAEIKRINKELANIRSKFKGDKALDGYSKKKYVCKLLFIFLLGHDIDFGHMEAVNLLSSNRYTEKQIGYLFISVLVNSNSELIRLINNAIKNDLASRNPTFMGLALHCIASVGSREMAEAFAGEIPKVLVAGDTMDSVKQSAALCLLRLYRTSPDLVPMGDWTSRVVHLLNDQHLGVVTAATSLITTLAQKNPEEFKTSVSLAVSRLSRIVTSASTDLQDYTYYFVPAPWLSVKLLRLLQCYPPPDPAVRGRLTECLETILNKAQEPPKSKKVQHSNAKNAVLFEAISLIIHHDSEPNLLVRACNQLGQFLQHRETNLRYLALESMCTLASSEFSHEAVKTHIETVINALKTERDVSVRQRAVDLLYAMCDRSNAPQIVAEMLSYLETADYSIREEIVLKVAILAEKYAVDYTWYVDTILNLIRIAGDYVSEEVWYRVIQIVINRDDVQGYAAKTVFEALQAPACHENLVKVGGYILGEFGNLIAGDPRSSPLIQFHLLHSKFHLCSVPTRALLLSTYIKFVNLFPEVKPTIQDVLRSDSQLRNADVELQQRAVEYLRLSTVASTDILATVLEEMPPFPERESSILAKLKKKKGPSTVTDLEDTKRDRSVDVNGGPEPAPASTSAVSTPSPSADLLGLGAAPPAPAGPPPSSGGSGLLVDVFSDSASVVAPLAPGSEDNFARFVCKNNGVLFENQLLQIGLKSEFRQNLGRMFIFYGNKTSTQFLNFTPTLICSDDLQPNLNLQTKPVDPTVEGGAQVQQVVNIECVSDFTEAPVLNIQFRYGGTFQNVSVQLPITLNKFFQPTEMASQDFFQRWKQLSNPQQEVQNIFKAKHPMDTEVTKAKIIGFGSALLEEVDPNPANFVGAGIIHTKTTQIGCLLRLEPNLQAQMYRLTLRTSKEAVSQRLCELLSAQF
UniProt P27695, whole entry, looked up: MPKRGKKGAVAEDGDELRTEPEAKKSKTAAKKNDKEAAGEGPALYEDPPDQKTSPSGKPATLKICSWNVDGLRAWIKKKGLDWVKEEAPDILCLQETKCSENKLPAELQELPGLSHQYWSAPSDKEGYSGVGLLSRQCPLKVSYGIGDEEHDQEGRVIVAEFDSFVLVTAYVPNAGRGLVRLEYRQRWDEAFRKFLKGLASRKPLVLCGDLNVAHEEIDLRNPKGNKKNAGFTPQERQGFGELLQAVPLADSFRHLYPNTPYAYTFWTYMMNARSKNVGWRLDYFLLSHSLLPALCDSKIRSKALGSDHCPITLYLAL
UniProt Q96CW1: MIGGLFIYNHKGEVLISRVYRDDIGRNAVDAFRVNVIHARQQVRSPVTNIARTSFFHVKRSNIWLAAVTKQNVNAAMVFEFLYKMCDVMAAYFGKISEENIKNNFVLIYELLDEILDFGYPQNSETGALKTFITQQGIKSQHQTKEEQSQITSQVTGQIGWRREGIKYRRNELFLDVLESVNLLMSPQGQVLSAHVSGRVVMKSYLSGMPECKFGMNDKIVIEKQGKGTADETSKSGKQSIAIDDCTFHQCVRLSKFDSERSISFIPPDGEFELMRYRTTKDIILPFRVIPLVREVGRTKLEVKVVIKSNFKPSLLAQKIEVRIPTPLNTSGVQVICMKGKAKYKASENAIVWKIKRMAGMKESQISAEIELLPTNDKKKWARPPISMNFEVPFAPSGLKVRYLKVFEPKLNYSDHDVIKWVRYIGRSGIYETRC
UniProt Q8IWZ3: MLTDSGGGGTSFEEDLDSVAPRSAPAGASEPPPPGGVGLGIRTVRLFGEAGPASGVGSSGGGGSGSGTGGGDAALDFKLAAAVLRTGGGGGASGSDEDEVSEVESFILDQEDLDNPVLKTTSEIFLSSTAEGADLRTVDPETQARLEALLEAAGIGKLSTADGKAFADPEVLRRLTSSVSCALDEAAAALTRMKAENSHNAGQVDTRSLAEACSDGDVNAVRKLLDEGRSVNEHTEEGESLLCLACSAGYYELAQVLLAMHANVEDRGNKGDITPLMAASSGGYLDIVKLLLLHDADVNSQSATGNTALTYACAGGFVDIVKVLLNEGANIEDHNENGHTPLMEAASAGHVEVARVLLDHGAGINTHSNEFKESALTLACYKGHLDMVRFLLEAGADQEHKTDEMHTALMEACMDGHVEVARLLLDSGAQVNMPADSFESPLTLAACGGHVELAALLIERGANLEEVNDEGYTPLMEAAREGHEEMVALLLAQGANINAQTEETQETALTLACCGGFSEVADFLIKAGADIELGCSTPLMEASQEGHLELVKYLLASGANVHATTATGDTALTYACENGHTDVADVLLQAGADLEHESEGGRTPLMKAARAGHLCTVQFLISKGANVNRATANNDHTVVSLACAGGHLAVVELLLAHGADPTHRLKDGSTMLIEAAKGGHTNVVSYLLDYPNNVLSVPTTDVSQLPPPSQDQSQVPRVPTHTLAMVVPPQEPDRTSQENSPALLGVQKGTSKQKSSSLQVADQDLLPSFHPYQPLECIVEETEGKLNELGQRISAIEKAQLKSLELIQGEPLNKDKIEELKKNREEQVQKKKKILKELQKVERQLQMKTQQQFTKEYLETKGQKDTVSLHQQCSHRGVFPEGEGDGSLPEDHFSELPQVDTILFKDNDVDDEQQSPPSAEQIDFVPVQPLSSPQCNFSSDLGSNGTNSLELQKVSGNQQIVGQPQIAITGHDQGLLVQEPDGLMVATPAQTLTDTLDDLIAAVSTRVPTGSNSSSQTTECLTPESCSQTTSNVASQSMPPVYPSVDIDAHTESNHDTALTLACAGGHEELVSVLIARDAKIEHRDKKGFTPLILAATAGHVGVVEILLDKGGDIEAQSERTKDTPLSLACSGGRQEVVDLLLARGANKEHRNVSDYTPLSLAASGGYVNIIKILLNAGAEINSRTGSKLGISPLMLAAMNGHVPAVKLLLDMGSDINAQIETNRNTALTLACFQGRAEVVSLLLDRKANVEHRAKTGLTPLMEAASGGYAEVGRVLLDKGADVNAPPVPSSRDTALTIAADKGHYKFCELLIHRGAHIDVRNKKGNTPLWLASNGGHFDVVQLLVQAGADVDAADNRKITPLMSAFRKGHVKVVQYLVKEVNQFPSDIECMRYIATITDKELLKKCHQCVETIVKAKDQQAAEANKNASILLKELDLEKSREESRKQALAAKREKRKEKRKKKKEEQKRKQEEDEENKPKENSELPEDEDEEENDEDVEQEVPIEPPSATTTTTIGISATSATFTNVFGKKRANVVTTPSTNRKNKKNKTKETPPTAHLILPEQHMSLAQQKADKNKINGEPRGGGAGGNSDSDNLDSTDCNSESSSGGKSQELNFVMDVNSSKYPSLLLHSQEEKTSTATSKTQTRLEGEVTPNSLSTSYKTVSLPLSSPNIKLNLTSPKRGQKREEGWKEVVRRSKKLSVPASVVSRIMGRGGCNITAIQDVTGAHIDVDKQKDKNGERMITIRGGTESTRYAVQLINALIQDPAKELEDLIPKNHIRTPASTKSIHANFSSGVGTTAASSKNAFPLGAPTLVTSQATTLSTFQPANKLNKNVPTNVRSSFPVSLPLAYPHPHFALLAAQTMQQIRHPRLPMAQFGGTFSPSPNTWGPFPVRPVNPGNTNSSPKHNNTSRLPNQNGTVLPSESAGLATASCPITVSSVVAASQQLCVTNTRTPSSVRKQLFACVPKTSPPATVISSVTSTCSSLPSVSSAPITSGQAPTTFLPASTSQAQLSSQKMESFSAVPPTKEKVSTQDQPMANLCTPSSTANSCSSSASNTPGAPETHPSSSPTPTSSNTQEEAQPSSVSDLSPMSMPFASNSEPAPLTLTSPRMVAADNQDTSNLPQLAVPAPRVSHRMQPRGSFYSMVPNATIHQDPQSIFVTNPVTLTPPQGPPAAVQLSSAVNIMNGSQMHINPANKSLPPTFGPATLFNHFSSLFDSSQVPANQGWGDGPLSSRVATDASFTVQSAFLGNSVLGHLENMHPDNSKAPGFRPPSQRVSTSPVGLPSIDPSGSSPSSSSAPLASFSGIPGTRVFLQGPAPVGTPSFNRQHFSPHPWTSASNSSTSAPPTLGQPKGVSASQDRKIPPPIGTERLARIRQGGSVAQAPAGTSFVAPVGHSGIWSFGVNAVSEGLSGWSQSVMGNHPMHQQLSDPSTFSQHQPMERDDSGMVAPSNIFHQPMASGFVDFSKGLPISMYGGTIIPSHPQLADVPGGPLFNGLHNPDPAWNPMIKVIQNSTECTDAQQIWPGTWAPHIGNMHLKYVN
UniProt Q9NQW6: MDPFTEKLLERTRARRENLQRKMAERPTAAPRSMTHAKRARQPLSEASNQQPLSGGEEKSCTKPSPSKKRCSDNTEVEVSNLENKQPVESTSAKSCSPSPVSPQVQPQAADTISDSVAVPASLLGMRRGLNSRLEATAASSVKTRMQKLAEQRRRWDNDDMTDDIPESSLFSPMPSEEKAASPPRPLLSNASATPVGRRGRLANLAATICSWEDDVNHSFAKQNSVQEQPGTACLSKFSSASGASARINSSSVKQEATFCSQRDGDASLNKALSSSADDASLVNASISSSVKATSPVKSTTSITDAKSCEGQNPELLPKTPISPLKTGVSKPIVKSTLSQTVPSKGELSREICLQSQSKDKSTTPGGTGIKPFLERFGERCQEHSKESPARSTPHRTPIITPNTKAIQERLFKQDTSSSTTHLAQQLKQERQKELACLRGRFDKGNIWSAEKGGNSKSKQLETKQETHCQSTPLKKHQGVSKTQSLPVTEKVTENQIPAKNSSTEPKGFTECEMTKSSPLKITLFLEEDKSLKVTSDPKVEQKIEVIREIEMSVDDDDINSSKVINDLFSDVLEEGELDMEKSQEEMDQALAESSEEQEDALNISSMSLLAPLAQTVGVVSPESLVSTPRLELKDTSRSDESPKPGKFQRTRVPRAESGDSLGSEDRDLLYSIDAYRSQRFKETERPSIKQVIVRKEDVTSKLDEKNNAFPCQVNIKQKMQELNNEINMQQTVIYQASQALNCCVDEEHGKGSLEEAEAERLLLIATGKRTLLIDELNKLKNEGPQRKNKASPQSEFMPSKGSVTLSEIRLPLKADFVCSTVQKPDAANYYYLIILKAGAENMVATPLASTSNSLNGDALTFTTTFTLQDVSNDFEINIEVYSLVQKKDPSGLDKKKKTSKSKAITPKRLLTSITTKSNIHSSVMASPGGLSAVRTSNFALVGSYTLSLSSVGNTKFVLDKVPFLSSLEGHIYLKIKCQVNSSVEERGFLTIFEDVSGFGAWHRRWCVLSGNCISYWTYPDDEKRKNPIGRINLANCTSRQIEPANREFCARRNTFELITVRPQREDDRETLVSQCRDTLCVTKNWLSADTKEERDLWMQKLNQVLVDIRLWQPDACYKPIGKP
UniProt Q9NRW3: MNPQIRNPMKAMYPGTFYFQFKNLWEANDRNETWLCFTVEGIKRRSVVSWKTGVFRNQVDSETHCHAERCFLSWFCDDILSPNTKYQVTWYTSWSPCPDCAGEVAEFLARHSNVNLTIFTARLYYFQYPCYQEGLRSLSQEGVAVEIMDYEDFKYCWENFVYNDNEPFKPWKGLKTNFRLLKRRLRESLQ
UniProt P19801: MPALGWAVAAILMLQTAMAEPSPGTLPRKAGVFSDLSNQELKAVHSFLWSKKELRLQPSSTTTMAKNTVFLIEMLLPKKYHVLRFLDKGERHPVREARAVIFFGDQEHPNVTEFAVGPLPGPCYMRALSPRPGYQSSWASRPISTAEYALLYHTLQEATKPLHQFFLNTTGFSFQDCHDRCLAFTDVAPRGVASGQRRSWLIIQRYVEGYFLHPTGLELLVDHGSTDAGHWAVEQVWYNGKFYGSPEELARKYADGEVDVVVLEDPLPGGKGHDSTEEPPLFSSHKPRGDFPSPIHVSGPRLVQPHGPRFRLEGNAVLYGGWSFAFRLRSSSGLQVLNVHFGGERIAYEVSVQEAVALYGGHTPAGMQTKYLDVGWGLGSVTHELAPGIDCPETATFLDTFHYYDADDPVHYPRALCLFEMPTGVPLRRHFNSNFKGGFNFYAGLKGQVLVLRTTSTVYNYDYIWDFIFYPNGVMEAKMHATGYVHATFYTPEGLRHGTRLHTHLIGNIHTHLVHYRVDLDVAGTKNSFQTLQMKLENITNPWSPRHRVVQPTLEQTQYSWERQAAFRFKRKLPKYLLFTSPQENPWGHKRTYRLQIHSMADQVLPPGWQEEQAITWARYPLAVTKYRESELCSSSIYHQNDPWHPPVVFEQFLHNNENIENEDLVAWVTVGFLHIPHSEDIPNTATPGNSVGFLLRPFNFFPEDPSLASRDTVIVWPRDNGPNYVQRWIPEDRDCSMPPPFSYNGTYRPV

The other results are listed elsewhere or left out.

Compound in the assay: Cc1cc(ccc1-c1ccccc1)C(=O)N1CCCN(CC1)C(=O)CCl [compound 10]
Briefly: probe-labelled cysteine peptide fold change vs DMSO (competition) (log2 fold change); higher = less target engagement (more negative = stronger competition). The following applies: THP-1, incubation time: 4 h.
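Also: competitive profiling in live THP-1 cells: cysteine peptides tagged with an iodoacetamide desthiobiotin (IA-DTB) probe, intensity after compound treatment relative to DMSO-treated cells.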

For “APIP_Q96GX9_97_SQCTPLFMNAYTMR (UniProt Q96GX9)”, the “probe-labelled cysteine peptide fold change” value by setting is: (10 µM) -0.0114; (50 µM) -0.156.
With “AP2A2_O94973_282_LTECLETILNK (UniProt O94973)”, the “probe-labelled cysteine peptide fold change” value reads like this: (10 µM) -0.294; (50 µM) -0.0771.
The corresponding values for “AP2A2_O94973_932_LCELLSAQF (UniProt O94973)” are 0.018 and -0.00051.
The corresponding values for “APEX1_P27695_65_ICSWNVDGLR (UniProt P27695)” are 0.181 and -0.0202.
The corresponding values for “AP2M1_Q96CW1_251_QSIAIDDCTFHQCVR (UniProt Q96CW1)” are 0.122 and 0.000365.
As for “ANKHD1_Q8IWZ3_615_AGHLCTVQFLISK (UniProt Q8IWZ3)”, the “probe-labelled cysteine peptide fold change” value was -0.149 (10 µM) and -0.568 (50 µM).
On the same counts, the results for “APEX1_P27695_208_KPLVLCGDLNVAHEEIDLR (UniProt P27695)” are 0.00931 and 0.154.
The corresponding values for “ANKRD27_Q96NW4_39_VAQIHGIVLVPCK (UniProt Q96NW4)” are -0.103 and -0.193.
On the same counts, the results for “ANLN_Q9NQW6_309_SCEGQNPELLPK (UniProt Q9NQW6)” are -0.285 and -0.113.
On to “APOBEC3C_Q9NRW3_65_NQVDSETHCHAER (UniProt Q9NRW3)”, for which the “probe-labelled cysteine peptide fold change” value by setting is: (10 µM) 0.0644; (50 µM) -0.16.
The corresponding values for “AOC1_P19801_417_ALCLFEMPTGVPLRR (UniProt P19801)” are -0.051 and 0.0426.
On the same counts, the results for “AP3D1_O14617_39_YISQCIDEIKQELK (UniProt O14617)” are 0.167 and -0.0302.
On the same counts, the results for “ANKLE2_Q86XL3_367_ENQASICQLTLDVLENPDFMR (UniProt Q86XL3)” are 0.261 and 0.342.
Take “ANKRD49_Q8WVL7_149_AAYSGHLDIVQELIAQGADVHAVTVDGWTPLHSACK (UniProt Q8WVL7)”: the “probe-labelled cysteine peptide fold change” value is 0.0824 (10 µM) and -0.0101 (50 µM).
